Measured values: PubChem BioAssay AID853 (Columbia University Molecular Screening Center, 2007)
The whole screen tested about 47,000 compounds, of which about 200 (0.43%) were called active. The shares of active, inactive and inconclusive entries below differ from those in the screen.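 Rule for the calls: active = inhibition of aggregate fluorescence above about 70%, also judged a hit by eye on the cell image (limit read from the data, passing the limit was not always enough); inconclusive = no rule stated for this call; inactive = not judged a hit on image review.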

experiment: clearance of mutant huntingtin inclusions, primary screen, imaging, HeLa Exon1htt(103Q)mCFP, confocal imaging (AID 853); details: aggregate imaging, at 1.5 µM, stronger effect = higher value, zero = plate's median compound well;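 note: cells exposed to compound for three days before fixation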

Structure (SMILES) | inhibition
Nc1nncn1C(=O)CCc1ccccc1 | inactive: 27.3%
CCC(c1nnnn1Cc1ccco1)N(CCc1ccccc1)Cc1cc2cccc(C)c2[nH]c1=O (configuration not stated) | active: 75.8%
CCCn1c(=O)[nH]c2ccccc21 | inconclusive: 87.9%
CCCCOC(=O)n1c(SCC(=O)N(C)C)nc2ccccc21 | inactive: 48.7%
Cc1cc(C)c(C)c(/C=C(/C#N)C(N)=S)c1C | active: 77.1%
CCN(CC)C(=O)Cn1cnc2sc(C(=O)Nc3cc(OC)c(OC)c(OC)c3)c(C)c2c1=O | inactive: 54.1%
O=C(C1CCC1)N1CCc2cc(S(=O)(=O)NC3CCCC3)ccc21 | inconclusive: 70.8%
Clc1ccc(-c2nc3ccccc3n2OCc2ccccc2)cc1 | inactive: -61.1%
Cc1cc(NC(=O)CSc2nc(C3CC3)nc3sc4c(c23)CCC(C)C4)no1 (configuration not stated) | active: 71.5%
COc1ccc(-c2nc(C#N)c(NCc3ccccc3Cl)o2)cc1OC | inactive: -0.4%
CC(=O)c1cc(-c2nc3ccccc3n2C)n(C)c1 | active: 71.3%
O=C(C1CCC(CNS(=O)(=O)c2cccc3cccnc23)CC1)N1CCCC1 (configuration not stated) | inconclusive: 72.2%
CS(=O)(=O)N(CC(=O)N1CCCC1)c1ccc(OCc2ccccc2)cc1 | active: 78%
O=c1[nH]c(CN2CCN(CCO)CC2)nc2ccccc12 | active: 76.6%
Cc1oc(-c2ccc(Cl)cc2)[n+]([O-])c1C | inactive: -36.3%
COc1ccc(Cn2c(CCC(=O)Nc3ccc(CC#N)cc3)nc3cccnc32)cc1 | inactive: -10.5%
COc1cccc(Oc2ccc(N)cn2)c1 | inconclusive: 94.5%
O=c1c2ccccc2nnn1CSc1nnc(COc2ccc(Cl)cc2)n1Cc1ccco1 | inconclusive: 72.2%
O=C(O)CCCC(=O)NCCc1ccncc1 | inconclusive: 74.2%
COc1ccc(OC)c(NC(=O)Cn2cc(C(=O)c3ccco3)c3ccccc32)c1 | active: 75.8%
CCc1ccc(NS(=O)(=O)c2cccs2)cc1 | inconclusive: 76.3%
N#Cc1nc(-c2ccc(F)cc2)oc1NCCN1CCOCC1 | inactive: -11.3%
Cc1c(C(=O)O)oc2ccc(S(=O)(=O)NCCC3=CCCCC3)cc12 | inconclusive: 78.5%
C=CCOc1ccc2ccccc2c1/C=N/O | inactive: 24.9%
Cc1c(C(=O)N(C)Cc2ccccc2)oc2ccc(S(=O)(=O)N3CCCC3)cc12 | inactive: -9.6%
N=c1sccn1CC(=O)Nc1cccc(Oc2ccccc2)c1 | inactive: -7.6%
CCCC(=O)Nc1cc2c(cc1C(=O)c1ccccc1)OCCO2 | inactive: 13.7%

2 compounds drawn at random from the list so far, as already listed:
Structure (SMILES) | inhibition
CCCC(=O)Nc1cc2c(cc1C(=O)c1ccccc1)OCCO2 | inactive: 13.7%
C=CCOc1ccc2ccccc2c1/C=N/O | inactive: 24.9%
